The other results are listed elsewhere or left out.
What was measured:
Test in all cases: log2 fold change, soluble protein after heating vs DMSO (PISA); higher = thermal stabilisation; K562 lysate, 10 uM; active = over 0.2 and 3.5 SD of the protein, either way, in both replicates (recomputed)
erlotinib = compound: C#Cc1cccc(Nc2ncnc3cc(OCCOC)c(OCCOC)cc23)c1 [erlotinib]
Summary of the method: (§1)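 Soluble protein was defined as the supernatant remaining after 21,000xg for 90 min, following pooling of heated aliquots and adjustment to 0.5% NP-40 at 4°C. Before that, crude K562 extract at 1 mg/mL protein in PBS pH 7.4 with 1 mM MgCl2 was treated with 10 μM compound for 30 min and heated for 3 min across 48°C-58°C. Quantification used TMTpro 16plex LC-MS/MS with channel sums equalised, and values are log-two fold changes in thermal stability relative to solvent controls from duplicates.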

By UniProt entry, the sequences of proteins in these tests, tags left out. Where a name states a change or a piece, a line headed by the entry shows the natural chain unless it says otherwise.
UniProt Q9BRT9, whole entry, looked up: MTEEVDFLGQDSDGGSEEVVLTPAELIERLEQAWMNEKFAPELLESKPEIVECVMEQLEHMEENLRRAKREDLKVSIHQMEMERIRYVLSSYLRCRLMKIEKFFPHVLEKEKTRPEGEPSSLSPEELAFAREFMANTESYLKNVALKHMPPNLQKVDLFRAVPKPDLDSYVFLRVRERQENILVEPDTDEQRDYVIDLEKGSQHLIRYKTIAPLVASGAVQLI
UniProt Q8TDQ7: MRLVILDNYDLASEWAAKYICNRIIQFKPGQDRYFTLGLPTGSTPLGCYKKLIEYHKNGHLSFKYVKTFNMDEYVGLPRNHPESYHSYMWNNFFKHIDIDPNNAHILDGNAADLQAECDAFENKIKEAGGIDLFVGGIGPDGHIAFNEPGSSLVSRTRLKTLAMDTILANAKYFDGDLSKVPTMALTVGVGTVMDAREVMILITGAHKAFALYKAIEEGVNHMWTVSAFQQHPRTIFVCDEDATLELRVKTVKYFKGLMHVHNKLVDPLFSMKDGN
UniProt Q9UJ14: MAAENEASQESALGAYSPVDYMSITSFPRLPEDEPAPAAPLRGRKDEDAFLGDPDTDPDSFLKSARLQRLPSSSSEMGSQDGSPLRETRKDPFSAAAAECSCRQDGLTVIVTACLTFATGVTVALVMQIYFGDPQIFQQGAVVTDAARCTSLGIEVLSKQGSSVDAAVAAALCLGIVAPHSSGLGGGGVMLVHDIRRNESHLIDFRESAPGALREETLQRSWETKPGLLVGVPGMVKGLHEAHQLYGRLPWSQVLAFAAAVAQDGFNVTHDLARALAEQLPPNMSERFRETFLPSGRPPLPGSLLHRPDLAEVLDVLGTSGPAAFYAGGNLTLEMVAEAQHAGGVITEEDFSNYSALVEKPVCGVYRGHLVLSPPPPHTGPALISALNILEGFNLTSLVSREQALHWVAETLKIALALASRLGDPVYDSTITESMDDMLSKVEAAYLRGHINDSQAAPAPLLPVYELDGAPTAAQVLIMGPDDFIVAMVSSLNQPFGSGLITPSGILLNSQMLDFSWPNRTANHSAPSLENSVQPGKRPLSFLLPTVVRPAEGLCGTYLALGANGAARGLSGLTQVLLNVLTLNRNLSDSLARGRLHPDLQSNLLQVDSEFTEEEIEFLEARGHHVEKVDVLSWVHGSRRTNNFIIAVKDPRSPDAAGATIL
UniProt Q9NQX3: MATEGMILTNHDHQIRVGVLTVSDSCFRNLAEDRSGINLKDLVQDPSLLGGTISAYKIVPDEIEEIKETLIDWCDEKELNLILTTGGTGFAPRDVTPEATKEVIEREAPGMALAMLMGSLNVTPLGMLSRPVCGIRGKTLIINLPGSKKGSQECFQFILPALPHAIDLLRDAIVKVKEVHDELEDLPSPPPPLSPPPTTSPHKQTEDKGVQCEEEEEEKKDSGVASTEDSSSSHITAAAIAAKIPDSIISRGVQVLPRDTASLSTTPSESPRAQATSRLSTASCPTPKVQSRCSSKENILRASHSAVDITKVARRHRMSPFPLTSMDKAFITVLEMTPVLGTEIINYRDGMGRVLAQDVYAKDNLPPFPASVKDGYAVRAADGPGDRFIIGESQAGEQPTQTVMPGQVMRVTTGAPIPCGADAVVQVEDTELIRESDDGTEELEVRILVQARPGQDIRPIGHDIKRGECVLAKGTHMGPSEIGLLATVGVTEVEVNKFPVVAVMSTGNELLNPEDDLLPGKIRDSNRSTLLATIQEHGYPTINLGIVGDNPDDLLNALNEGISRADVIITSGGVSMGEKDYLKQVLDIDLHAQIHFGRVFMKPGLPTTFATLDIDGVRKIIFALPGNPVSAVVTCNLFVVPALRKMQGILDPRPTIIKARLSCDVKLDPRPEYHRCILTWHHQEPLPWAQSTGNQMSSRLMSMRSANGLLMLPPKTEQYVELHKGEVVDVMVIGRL
UniProt O60547: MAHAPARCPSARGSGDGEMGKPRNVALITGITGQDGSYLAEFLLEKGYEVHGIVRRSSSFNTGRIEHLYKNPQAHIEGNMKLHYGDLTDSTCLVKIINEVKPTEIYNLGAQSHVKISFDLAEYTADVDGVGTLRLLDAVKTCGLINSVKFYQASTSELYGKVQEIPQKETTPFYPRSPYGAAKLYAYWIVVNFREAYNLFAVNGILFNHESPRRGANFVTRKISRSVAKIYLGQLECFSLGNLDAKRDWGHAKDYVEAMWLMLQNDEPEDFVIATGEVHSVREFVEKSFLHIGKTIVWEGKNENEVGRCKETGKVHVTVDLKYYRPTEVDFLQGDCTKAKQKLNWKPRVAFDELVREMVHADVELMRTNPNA
UniProt P16520, whole entry, looked up: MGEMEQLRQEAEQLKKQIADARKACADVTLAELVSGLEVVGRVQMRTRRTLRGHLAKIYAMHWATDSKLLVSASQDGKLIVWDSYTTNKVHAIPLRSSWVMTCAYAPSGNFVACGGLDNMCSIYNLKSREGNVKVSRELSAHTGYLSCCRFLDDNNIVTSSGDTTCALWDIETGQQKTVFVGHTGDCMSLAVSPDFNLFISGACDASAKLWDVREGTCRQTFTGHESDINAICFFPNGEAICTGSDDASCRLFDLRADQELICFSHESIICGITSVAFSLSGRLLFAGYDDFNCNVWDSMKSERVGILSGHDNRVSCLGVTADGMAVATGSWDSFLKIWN
UniProt Q9NZ52: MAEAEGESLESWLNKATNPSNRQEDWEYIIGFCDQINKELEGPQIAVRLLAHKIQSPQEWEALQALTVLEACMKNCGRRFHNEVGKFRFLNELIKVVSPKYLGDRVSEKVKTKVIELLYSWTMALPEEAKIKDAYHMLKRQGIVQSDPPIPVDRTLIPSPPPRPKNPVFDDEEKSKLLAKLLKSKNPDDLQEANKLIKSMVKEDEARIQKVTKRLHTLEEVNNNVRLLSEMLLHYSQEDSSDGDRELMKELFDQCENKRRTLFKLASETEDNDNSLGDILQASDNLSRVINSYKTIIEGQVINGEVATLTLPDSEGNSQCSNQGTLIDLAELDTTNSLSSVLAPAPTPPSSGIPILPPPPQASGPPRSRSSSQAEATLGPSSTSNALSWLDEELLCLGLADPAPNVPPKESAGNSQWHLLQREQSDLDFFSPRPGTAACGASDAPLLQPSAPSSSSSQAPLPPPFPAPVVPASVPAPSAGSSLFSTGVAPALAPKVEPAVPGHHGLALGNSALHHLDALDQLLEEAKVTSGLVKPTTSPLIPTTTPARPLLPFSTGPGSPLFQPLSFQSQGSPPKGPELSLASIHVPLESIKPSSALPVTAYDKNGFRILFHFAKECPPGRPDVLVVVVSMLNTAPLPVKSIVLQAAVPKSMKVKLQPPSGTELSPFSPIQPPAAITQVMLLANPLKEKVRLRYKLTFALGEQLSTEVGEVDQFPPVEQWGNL
UniProt P43304: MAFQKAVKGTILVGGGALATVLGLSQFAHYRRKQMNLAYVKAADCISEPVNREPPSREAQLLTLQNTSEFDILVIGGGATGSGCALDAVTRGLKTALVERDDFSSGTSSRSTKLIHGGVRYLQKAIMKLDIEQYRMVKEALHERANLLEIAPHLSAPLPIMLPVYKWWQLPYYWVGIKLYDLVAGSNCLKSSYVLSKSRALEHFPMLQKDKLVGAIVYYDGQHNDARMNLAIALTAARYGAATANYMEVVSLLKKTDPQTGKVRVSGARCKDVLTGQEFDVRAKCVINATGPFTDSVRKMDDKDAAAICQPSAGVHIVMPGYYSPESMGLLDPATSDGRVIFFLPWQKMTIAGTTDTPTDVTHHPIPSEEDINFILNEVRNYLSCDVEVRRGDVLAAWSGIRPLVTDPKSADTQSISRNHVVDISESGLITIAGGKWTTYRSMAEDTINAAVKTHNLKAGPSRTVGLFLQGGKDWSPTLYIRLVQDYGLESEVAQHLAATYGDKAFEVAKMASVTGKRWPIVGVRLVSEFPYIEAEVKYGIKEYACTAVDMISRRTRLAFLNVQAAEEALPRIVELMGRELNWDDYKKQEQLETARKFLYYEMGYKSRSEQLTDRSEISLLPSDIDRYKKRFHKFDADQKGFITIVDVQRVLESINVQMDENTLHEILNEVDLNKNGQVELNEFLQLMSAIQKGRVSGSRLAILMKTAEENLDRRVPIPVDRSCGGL
UniProt O00461: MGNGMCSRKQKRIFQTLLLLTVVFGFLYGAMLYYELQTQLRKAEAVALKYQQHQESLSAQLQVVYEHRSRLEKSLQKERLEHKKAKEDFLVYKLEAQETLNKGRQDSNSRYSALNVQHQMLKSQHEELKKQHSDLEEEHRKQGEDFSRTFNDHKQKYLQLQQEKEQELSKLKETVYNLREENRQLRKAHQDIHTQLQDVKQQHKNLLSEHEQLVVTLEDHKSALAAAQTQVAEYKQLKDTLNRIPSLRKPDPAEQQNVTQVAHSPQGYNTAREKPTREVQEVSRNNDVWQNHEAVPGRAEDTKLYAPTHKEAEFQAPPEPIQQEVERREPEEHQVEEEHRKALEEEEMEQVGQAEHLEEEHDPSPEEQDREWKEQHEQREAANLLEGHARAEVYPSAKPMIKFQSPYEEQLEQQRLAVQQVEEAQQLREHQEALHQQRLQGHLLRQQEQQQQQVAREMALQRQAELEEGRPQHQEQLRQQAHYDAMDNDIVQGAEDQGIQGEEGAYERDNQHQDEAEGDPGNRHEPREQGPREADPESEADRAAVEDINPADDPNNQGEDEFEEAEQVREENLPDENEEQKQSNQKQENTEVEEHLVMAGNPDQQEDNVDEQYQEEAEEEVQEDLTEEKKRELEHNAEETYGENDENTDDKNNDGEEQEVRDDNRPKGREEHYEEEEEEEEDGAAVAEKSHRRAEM
UniProt Q8IXQ4: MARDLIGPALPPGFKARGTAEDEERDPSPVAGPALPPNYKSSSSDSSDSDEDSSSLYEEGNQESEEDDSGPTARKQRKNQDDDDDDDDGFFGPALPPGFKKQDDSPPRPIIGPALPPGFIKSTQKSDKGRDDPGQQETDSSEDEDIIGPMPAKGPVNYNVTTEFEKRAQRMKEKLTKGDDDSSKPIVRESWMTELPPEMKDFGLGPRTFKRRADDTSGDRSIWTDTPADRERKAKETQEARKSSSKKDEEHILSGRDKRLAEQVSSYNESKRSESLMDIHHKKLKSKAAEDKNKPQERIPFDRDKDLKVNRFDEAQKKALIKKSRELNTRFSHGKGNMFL
UniProt Q9NPR9: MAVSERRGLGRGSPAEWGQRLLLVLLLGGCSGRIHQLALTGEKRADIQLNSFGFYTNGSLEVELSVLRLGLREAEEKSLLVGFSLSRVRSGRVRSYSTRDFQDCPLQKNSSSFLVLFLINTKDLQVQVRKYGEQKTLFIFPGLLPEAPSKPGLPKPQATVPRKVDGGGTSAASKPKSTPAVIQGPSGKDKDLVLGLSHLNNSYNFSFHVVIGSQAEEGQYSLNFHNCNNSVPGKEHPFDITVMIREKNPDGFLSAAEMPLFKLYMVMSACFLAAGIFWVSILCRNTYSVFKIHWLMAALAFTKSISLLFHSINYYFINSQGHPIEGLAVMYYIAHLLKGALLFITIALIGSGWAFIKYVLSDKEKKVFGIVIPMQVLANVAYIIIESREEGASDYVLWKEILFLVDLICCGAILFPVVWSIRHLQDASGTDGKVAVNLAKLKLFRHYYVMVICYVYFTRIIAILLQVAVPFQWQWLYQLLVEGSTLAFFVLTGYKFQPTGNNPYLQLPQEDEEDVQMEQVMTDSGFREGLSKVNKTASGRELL
UniProt Q96EK6: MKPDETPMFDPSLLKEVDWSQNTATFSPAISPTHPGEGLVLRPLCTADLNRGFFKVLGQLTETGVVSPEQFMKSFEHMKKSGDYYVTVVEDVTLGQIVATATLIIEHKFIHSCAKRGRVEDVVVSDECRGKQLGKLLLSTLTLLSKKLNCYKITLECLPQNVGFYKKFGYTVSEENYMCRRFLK
UniProt Q86WP2: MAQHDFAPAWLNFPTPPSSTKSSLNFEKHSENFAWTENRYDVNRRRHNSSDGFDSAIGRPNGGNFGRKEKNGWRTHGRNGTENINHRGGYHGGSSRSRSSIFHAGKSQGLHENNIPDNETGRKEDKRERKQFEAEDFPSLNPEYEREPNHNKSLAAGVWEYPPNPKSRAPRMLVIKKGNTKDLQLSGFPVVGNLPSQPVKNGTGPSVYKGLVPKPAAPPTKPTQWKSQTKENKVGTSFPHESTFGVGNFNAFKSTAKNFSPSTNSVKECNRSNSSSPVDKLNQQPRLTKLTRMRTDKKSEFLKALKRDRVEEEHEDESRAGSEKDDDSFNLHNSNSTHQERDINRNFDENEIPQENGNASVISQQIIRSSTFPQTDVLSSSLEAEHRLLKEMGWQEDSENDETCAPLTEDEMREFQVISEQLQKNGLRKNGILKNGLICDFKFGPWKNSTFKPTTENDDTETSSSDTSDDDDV

[1] = compound: C/C(=N\NC(=O)C1=CC(=CC=C1)S(=O)(=O)N2CCOCC2)/C3=C(C=CC(=C3)Cl)O
Summary of the method: as §1

[2] = compound: C1=CC(=CC=C1C2=NC3=C(N2)C=C(C=C3)C(=O)N)OC4=CC=C(C=C4)Cl
Summary of the method: as §1

[3] = compound: C1=CC2=C(C=CC(=C2)/C=C\3/C(=O)NC(=NCC4=CC=CS4)S3)N=C1
Summary of the method: as §1

[4] = compound: C1=CC2=NC=CN=C2C=C1/C=C/3\C(=O)NC(=O)S3
Summary of the method: as §1

[5] = compound: C1=CC=C(C=C1)C2=NC(=C(N2)C3=CC=NC=C3)C4=CC(=C(C=C4)Cl)O
Summary of the method: as §1

[6] = compound: C1=CC=C2C(=C1)C3=NNC4=CC=CC(=C43)C2=O
Summary of the method: as §1

[7] = compound: C1CCN(C1)C(=O)NC2=CC=CC(=C2)NC3=NC=C(C(=N3)NCCC4=CN=CN4)Br
Summary of the method: as §1

[8] = compound: C1CN(CCC1(CC2=CC=C(C=C2)Cl)N)C3=NC=NC4=C3C=CN4
Summary of the method: as §1

IRAK-1-4 Inhibitor I = compound: C1COCCN1CCN2C3=CC=CC=C3N=C2NC(=O)C4=CC(=CC=C4)[N+](=O)[O-] [IRAK-1-4 Inhibitor I]
Summary of the method: as §1

ibrutinib = compound: C=CC(=O)N1CCC[C@@H](n2nc(-c3ccc(Oc4ccccc4)cc3)c3c(N)ncnc32)C1 [ibrutinib]
Summary of the method: as §1

[9] = compound: CC(=O)c1cnc2ccc(-c3cc(Cl)c(O)c(Cl)c3)nc2c1N[C@H]1CC[C@H](CN(C)C)CC1
Summary of the method: as §1

ralimetinib = compound: CC(C)(C)Cn1c(N)nc2ccc(-c3[nH]c(C(C)(C)C)nc3-c3ccc(F)cc3)nc21 [ralimetinib]
Summary of the method: as §1

[10] = compound: CC(C)(O)CC(=O)NCCn1ccc2ncnc(Nc3ccc(Oc4cccc(C(F)(F)F)c4)c(Cl)c3)c21
Summary of the method: as §1

[11] = compound: CC(C)C1=C2N=C(C=C(N2N=C1)NCC3=CC=CC=C3)NCCCCCCN
Summary of the method: as §1

[12] = compound: CC1=C(C(CC(=O)N1)C2=CC=C(C=C2)C(F)(F)F)C(=O)NC3=C(C=C4C(=C3)C=NN4)F
Summary of the method: as §1

[13] = compound: CC1=C(C2=C(C=C1)C(=O)C3=CC=CC=C3N2CCCN)C
Summary of the method: as §1

[14] = compound: CC1=C(C=C(C=C1)NC(=O)C2=CC(=CC=C2)C(C)(C)C#N)NC3=CC4=C(C=C3)N=CN(C4=O)C
Summary of the method: as §1

[15] = compound: CC1=C(C=C(C=C1)NC(=O)C2=CC(=CC=C2)N(C)C)NC(=O)C3=CC=C(C=C3)O
Summary of the method: as §1

[16] = compound: CC1=CC=C(C=C1)SC2=C3C=C(SC3=CN=C2)C(=O)N
Summary of the method: as §1

Measured: log2 fold change

GINS4 (UniProt Q9BRT9)
inactive: erlotinib 0.006 | [1] 0.018 | [2] 0.016 | [3] 0.047 | [4] -0.022 | [5] 0.011 | [6] 0.031 | [7] 0 | [8] 0.011 | IRAK-1-4 Inhibitor I -0.004 | ibrutinib 0.001 | [9] -0.004 | ralimetinib -0.011 | [10] -0.034 | [11] -0.001 | [12] -0.011 | [13] 0.012 | [14] 0.022 | [15] 0.012 | [16] -0.015

GNPDA2 (UniProt Q8TDQ7)
inactive: erlotinib -0.006 | [1] 0.038 | [2] 0.012 | [3] -0.008 | [4] -0.025 | [5] 0.058 | [6] 0.122 | [7] -0.076 | [8] -0.008 | IRAK-1-4 Inhibitor I 0.004 | ibrutinib -0.017 | [9] -0.02 | ralimetinib 0.028 | [10] 0 | [11] -0.006 | [12] -0.026 | [13] -0.031 | [14] 0.001 | [15] 0 | [16] 0.018

GGT7 (UniProt Q9UJ14)
inactive: erlotinib -0.04 | [1] 0.07 | [2] 0.021 | [3] -0.116 | [4] 0.094 | [5] -0.059 | [6] 0.018 | [7] 0.026 | [8] -0.023 | IRAK-1-4 Inhibitor I 0.027 | ibrutinib 0.019 | [9] 0.004 | ralimetinib -0.07 | [10] -0.106 | [11] -0.05 | [12] 0.003 | [13] -0.066 | [14] -0.032 | [15] 0.035 | [16] 0.017

GPHN isoform 2 (UniProt Q9NQX3)
inactive: erlotinib 0.001 | [1] 0.003 | [2] 0.02 | [3] -0.01 | [4] -0.018 | [5] 0.024 | [6] 0.018 | [7] 0.002 | [8] 0.016 | IRAK-1-4 Inhibitor I 0.002 | ibrutinib 0.016 | [9] -0.001 | ralimetinib 0.01 | [10] -0.014 | [11] -0.055 | [12] -0.007 | [13] -0.014 | [14] 0.004 | [15] 0.015 | [16] -0.023

GMDS (UniProt O60547)
inactive: erlotinib 0.017 | [1] 0.005 | [2] 0.029 | [3] -0.054 | [4] -0.012 | [5] -0.023 | [6] -0.043 | [7] 0.019 | [8] 0.036 | IRAK-1-4 Inhibitor I 0.01 | ibrutinib 0.042 | [9] -0.018 | ralimetinib 0.025 | [10] 0.01 | [11] -0.023 | [12] 0.031 | [13] 0.022 | [14] 0.027 | [15] 0.008 | [16] 0.015

GNB3 (UniProt P16520)
inactive: erlotinib 0.007 | [1] -0.043 | [2] -0.001 | [3] -0.037 | [4] -0.038 | [5] -0.036 | [6] -0.013 | [7] -0.052 | [8] -0.024 | IRAK-1-4 Inhibitor I 0.057 | ibrutinib -0.028 | [9] -0.087 | ralimetinib 0.064 | [10] -0.07 | [11] -0.065 | [12] -0.042 | [13] 0.019 | [14] 0.082 | [15] 0.116 | [16] -0.073

GGA3 (UniProt Q9NZ52)
inactive: erlotinib 0.003 | [1] -0.035 | [2] -0.034 | [3] -0.019 | [4] 0.008 | [5] -0.037 | [6] 0.062 | [7] 0.004 | [8] -0.025 | IRAK-1-4 Inhibitor I -0.054 | ibrutinib 0.004 | [9] 0.01 | ralimetinib 0.049 | [10] 0.029 | [11] -0.024 | [12] 0.036 | [13] 0.039 | [14] -0.025 | [15] 0.021 | [16] -0.019

GPD2 (UniProt P43304)
inactive: erlotinib -0.012 | [1] -0.07 | [2] 0.002 | [3] -0.002 | [4] 0.006 | [5] -0.001 | [6] -0.098 | [7] 0.006 | [8] -0.017 | IRAK-1-4 Inhibitor I 0.003 | ibrutinib -0.001 | [9] -0.228 | ralimetinib 0.021 | [10] -0.023 | [11] -0.009 | [12] 0.013 | [13] -0.019 | [14] 0.022 | [15] -0.014 | [16] -0.047

GOLIM4 (UniProt O00461)
inactive: erlotinib -0.005 | [1] 0.01 | [2] 0.009 | [3] 0.028 | [4] 0.006 | [5] -0.017 | [6] -0.07 | [7] -0.014 | [8] -0.021 | IRAK-1-4 Inhibitor I 0.003 | ibrutinib 0.014 | [9] 0.048 | ralimetinib 0.003 | [10] -0.053 | [11] -0.006 | [12] 0.038 | [13] -0.022 | [14] 0.002 | [15] -0.033 | [16] -0.01

GPN1 isoform 5 (UniProt Q9HCN4)
inactive: erlotinib -0.018 | [1] 0.051 | [2] 0.021 | [3] 0.024 | [4] 0.007 | [5] 0.036 | [6] 0.056 | [7] -0.014 | [8] 0.03 | IRAK-1-4 Inhibitor I 0.062 | ibrutinib 0.022 | [9] 0.008 | ralimetinib 0.062 | [10] -0.019 | [11] -0.006 | [12] 0.053 | [13] 0.008 | [14] -0.004 | [15] -0.035 | [16] -0.002

Two records drawn at random from the list so far, as already listed:
GPN1 isoform 5 (UniProt Q9HCN4)
inactive: erlotinib -0.018 | [1] 0.051 | [2] 0.021 | [3] 0.024 | [4] 0.007 | [5] 0.036 | [6] 0.056 | [7] -0.014 | [8] 0.03 | IRAK-1-4 Inhibitor I 0.062 | ibrutinib 0.022 | [9] 0.008 | ralimetinib 0.062 | [10] -0.019 | [11] -0.006 | [12] 0.053 | [13] 0.008 | [14] -0.004 | [15] -0.035 | [16] -0.002

GOLIM4 (UniProt O00461)
inactive: erlotinib -0.005 | [1] 0.01 | [2] 0.009 | [3] 0.028 | [4] 0.006 | [5] -0.017 | [6] -0.07 | [7] -0.014 | [8] -0.021 | IRAK-1-4 Inhibitor I 0.003 | ibrutinib 0.014 | [9] 0.048 | ralimetinib 0.003 | [10] -0.053 | [11] -0.006 | [12] 0.038 | [13] -0.022 | [14] 0.002 | [15] -0.033 | [16] -0.01

Additional entries.

GPALPP1 (UniProt Q8IXQ4)
inactive: erlotinib -0.02 | [1] -0.005 | [2] 0.025 | [3] -0.011 | [4] 0.023 | [5] -0.015 | [6] 0.006 | [7] -0.042 | [8] 0.043 | IRAK-1-4 Inhibitor I 0.013 | ibrutinib 0.079 | [9] -0.03 | ralimetinib -0.004 | [10] -0.005 | [11] 0.008 | [12] 0.041 | [13] -0.047 | [14] 0.029 | [15] 0.008 | [16] -0.018

GPR108 (UniProt Q9NPR9)
inactive: erlotinib 0.035 | [1] 0.022 | [2] 0 | [3] 0.066 | [4] 0.015 | [5] 0.056 | [6] -0.028 | [7] -0.015 | [8] 0.03 | IRAK-1-4 Inhibitor I -0.026 | ibrutinib -0.017 | [9] -0.063 | ralimetinib 0.001 | [10] -0.024 | [11] -0.08 | [12] 0.039 | [13] 0.049 | [14] 0.027 | [15] -0.062 | [16] -0.004

GNPNAT1 (UniProt Q96EK6)
inactive: erlotinib -0.022 | [1] 0.047 | [2] 0.016 | [3] 0.014 | [4] 0.007 | [5] 0.028 | [6] 0.068 | [7] -0.026 | [8] 0.013 | IRAK-1-4 Inhibitor I -0.03 | ibrutinib 0.051 | [9] -0.021 | ralimetinib 0.012 | [10] -0.008 | [11] 0.035 | [12] 0.009 | [13] 0.019 | [14] 0.078 | [15] -0.027 | [16] -0.014

GPBP1 isoform 2 (UniProt Q86WP2)
inactive: erlotinib 0.054 | [1] -0.039 | [2] 0.043 | [3] 0.012 | [4] -0.088 | [5] 0.041 | [6] 0.003 | [7] -0.111 | [8] 0.034 | IRAK-1-4 Inhibitor I 0.031 | ibrutinib 0.208 | [9] -0.003 | ralimetinib -0.022 | [10] 0.014 | [11] -0.007 | [12] -0.038 | [13] -0.014 | [14] 0.135 | [15] -0.06 | [16] -0.032

GLUD2 (UniProt P49448)
inactive: erlotinib -0.017 | [1] -0.016 | [2] -0.053 | [3] 0.028 | [4] -0.057 | [5] -0.014 | [6] -0.09 | [7] -0.119 | [8] 0.029 | IRAK-1-4 Inhibitor I 0.113 | ibrutinib -0.063 | [9] 0.063 | ralimetinib 0.02 | [10] -0.043 | [11] -0.012 | [12] 0.018 | [13] -0.028 | [14] 0.061 | [15] 0.001 | [16] 0.033
